Values quoted from earlier work as cited in patent publication US20230165842A1, “NEW USES” (priority 2020, published 2023).
Read-outs that look alike come from different tables or passages of the source.

Chains of the proteins cited; added tags and fusions are not shown. Residues count along the entry.
UniProt Q9BYF1, 18-805: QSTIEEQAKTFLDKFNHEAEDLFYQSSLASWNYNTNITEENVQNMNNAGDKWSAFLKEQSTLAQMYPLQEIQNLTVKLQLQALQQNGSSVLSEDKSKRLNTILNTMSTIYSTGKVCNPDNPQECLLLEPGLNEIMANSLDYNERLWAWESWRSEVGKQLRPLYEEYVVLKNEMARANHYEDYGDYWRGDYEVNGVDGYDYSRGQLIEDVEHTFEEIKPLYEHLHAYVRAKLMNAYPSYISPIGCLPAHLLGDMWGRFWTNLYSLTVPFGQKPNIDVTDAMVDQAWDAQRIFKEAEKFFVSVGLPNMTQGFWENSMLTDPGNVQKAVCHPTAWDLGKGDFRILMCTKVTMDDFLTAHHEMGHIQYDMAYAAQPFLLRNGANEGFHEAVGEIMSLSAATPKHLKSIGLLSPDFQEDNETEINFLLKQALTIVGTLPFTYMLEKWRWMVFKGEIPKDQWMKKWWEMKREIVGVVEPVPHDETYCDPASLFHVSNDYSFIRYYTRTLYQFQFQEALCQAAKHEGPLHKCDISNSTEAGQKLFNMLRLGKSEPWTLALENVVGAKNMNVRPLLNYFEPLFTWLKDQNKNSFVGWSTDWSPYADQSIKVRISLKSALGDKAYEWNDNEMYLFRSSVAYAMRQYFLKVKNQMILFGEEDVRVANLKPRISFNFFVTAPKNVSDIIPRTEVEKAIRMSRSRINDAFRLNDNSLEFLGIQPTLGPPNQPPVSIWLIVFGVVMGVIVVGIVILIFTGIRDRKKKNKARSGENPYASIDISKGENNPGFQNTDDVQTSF

What was measured:
ACE2 = ACE2 (Homo sapiens, UniProt Q9BYF1)
SARS-CoV-2 = conditions: Vero E6, 2 h pre-treatment, 24 h

| Structure (SMILES) | binding to ACE2 (ACE2; cell membrane chromatography and surface plasmon resonance) | binding affinity to ACE2 (ACE2; compared with loratadine) | IC50 (SARS-CoV-2; MOI 0.004) [µM] | IC50 (SARS-CoV-2; MOI 0.01) [µM] |
| --- | --- | --- | --- | --- |
| Clc1ccc2c(c1)CCc1cccnc1C2=C1CCNCC1 [Compound 80, desloratadine] | could bind to ACE2 | much stronger | – | – |
| OCCN1CCN(CCCN2c3ccccc3Sc3ccc(C(F)(F)F)cc32)CC1 [Compound 33, fluphenazine] | – | – | 6.36 | 8.98 |
